Test results reported in the supplement of paper PMC10849652.
The list shows a part of the results.

Protein sequences, listed by entry. Tags and fused reporters are not part of them. Lines headed by an entry give the natural chain unless they say otherwise; changes in a name come on top.
UniProt Q8NI36: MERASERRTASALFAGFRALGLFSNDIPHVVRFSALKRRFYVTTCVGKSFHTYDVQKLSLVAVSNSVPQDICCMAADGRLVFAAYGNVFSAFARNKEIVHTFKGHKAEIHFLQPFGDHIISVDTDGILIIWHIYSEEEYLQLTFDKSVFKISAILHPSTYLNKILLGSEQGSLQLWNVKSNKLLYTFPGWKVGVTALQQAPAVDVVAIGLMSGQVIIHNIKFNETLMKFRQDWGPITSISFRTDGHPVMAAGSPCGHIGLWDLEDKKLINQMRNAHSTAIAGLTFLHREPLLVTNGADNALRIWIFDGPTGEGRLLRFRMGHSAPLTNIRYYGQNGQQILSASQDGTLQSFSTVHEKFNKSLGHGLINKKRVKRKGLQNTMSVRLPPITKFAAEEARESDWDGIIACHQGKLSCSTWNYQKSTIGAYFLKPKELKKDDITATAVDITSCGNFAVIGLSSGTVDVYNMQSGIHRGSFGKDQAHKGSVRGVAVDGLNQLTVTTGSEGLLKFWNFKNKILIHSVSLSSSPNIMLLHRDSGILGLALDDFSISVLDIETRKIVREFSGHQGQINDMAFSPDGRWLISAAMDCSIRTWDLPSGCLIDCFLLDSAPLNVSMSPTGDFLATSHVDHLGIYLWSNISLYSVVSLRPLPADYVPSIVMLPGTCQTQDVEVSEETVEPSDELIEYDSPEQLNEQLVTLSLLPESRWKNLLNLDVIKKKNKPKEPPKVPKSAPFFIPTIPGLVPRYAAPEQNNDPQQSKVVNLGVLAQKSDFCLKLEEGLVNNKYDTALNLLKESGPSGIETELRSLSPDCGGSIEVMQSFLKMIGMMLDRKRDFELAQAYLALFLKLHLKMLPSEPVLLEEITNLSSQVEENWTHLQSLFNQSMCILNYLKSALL
UniProt Q8TBZ3: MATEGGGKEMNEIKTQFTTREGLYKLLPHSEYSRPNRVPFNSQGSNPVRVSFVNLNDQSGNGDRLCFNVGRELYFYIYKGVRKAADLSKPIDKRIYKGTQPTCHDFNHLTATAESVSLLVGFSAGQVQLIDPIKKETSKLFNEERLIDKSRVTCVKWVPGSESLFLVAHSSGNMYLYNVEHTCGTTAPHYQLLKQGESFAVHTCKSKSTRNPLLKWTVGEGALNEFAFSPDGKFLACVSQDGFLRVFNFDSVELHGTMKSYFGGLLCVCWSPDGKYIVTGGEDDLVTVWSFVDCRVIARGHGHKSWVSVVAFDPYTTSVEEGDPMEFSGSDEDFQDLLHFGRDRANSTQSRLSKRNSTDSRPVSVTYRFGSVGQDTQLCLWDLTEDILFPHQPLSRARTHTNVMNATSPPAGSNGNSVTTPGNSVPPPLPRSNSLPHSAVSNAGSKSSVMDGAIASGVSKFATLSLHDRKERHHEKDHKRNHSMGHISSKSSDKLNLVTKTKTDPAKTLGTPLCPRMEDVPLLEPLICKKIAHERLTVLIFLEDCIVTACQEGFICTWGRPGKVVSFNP
UniProt P42768: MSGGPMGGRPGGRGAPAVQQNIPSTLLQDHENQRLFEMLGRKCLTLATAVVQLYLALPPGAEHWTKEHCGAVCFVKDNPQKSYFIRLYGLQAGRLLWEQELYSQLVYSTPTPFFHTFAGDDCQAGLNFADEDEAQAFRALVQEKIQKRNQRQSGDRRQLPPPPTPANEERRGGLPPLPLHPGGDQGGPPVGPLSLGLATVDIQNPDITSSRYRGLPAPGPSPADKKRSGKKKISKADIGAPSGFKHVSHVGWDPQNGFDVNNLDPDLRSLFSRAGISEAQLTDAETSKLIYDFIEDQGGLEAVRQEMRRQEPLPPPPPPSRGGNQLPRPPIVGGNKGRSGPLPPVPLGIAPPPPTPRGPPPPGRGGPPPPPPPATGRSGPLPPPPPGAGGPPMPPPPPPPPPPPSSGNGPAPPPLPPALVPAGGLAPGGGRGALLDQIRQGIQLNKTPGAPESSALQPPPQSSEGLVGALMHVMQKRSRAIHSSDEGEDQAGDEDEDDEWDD
UniProt Q86Y07: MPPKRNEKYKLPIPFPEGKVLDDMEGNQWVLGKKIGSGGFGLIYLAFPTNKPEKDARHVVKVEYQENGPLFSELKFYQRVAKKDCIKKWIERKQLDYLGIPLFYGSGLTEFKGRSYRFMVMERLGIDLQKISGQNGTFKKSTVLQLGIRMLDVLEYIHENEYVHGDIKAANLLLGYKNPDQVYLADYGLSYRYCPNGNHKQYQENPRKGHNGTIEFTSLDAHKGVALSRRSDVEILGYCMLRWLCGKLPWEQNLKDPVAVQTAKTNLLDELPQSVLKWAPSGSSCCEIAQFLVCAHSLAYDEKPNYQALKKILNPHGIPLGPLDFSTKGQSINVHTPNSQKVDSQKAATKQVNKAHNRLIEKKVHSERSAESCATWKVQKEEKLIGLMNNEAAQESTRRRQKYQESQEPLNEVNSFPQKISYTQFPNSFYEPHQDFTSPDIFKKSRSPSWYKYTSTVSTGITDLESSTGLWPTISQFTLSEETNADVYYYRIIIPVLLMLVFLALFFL
UniProt Q9HD64: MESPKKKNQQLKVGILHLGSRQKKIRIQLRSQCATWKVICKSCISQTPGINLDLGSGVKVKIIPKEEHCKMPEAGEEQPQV
UniProt Q8N3P4: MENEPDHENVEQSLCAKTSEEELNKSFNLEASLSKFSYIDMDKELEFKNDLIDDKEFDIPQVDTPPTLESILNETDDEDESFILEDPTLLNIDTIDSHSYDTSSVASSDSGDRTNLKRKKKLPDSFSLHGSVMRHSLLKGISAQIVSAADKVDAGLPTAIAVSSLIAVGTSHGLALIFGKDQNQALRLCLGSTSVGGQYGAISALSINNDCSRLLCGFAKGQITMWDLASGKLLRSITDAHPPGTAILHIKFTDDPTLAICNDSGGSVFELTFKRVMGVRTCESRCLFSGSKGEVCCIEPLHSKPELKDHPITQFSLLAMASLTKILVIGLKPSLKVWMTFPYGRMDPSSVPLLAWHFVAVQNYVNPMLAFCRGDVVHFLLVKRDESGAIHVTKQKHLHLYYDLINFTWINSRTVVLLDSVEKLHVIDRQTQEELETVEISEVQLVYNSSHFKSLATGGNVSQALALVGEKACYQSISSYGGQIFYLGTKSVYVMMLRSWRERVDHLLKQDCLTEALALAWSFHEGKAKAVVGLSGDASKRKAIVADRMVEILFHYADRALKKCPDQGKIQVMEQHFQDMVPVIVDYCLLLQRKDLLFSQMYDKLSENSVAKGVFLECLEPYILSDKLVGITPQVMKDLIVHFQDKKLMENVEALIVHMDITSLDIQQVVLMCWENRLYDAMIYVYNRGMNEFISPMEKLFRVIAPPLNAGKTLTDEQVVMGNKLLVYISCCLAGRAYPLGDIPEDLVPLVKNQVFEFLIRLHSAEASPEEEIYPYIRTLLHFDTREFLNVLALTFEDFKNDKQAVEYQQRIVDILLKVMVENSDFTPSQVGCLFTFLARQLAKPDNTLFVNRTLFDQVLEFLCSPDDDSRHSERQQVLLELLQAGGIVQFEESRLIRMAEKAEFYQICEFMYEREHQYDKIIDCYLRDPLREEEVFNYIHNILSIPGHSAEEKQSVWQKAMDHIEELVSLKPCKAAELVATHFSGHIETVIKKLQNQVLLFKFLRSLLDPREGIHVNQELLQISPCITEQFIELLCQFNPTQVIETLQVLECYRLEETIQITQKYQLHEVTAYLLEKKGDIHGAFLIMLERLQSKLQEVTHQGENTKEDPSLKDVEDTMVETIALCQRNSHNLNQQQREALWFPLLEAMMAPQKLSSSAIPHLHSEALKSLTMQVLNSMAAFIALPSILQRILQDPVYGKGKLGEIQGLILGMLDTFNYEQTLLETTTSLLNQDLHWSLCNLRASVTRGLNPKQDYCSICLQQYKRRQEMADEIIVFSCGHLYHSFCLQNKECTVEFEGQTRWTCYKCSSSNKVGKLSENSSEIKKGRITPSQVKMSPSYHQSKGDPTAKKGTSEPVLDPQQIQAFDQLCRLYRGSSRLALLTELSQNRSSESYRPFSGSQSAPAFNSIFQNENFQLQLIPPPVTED
UniProt Q9H977: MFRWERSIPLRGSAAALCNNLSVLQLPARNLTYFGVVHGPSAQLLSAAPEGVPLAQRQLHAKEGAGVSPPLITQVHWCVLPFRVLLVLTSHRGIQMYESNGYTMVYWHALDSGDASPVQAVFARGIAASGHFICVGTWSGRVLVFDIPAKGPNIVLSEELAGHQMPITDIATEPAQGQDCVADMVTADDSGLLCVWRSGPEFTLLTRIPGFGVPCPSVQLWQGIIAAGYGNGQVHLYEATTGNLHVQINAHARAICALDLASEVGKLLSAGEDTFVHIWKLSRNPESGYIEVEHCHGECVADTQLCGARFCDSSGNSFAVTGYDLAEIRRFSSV
UniProt Q99986: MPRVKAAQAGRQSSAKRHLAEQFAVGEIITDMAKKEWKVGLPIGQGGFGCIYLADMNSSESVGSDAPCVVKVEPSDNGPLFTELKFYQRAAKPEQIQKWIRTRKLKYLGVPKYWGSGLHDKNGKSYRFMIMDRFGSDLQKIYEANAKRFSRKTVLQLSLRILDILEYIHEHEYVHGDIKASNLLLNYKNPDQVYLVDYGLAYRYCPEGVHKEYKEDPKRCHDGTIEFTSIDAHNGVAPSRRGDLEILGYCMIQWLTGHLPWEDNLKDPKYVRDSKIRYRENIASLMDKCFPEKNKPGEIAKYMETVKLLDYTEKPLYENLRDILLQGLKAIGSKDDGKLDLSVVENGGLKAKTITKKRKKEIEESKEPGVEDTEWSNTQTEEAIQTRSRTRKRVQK
UniProt O43516: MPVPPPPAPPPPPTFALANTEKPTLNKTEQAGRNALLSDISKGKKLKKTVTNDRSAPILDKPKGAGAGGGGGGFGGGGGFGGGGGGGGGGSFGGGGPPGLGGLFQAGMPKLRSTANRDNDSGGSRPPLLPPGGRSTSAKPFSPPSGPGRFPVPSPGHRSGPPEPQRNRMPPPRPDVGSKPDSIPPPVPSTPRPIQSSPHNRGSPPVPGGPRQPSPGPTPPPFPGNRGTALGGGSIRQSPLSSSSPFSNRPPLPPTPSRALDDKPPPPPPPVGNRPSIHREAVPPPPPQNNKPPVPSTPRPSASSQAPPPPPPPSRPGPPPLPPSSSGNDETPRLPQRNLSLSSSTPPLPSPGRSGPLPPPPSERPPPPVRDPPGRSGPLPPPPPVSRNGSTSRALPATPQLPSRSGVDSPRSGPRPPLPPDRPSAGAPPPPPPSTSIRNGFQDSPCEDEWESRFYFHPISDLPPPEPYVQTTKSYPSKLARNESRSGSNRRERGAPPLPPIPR
UniProt Q9NRW7: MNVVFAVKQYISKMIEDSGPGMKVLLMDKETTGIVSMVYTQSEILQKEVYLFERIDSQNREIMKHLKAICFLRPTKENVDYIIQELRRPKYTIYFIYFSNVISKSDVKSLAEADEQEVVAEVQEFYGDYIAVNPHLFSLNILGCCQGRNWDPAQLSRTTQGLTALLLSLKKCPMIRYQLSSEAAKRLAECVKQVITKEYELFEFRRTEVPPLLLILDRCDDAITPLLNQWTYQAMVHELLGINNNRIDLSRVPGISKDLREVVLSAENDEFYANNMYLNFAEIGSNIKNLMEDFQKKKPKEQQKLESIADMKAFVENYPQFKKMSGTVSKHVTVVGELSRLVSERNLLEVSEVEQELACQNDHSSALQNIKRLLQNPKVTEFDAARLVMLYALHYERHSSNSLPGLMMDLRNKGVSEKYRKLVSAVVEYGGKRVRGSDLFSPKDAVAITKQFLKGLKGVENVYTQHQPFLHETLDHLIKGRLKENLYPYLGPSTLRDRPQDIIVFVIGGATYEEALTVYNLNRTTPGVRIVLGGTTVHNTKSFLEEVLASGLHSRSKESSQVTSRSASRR
UniProt Q9BTA9: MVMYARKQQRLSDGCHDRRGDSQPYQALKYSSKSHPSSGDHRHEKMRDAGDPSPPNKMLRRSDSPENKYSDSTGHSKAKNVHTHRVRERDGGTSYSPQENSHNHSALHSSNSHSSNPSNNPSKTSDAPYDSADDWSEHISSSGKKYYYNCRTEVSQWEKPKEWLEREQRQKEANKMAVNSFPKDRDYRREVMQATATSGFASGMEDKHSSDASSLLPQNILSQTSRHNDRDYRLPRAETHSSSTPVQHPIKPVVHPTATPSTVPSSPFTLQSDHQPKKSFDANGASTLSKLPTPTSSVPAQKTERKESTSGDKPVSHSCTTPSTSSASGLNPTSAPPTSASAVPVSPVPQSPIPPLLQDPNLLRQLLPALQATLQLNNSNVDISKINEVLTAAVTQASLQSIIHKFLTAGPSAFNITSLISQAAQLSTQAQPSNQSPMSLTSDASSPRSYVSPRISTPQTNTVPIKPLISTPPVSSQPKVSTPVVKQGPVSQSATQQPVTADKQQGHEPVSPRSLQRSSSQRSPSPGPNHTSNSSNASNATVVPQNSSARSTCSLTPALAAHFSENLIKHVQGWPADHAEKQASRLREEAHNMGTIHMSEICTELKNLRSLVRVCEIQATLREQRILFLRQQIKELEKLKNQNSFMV

What was measured:
Assay in all cases: log2 fold change, soluble protein after heating vs DMSO (PISA); higher = thermal stabilisation; K562 lysate, 10 uM; active = over 0.2 and 3.5 SD of the protein, either way, in both replicates (recomputed)
[1] = compound: O=C1NC(=O)C(c2cnc3ccccn23)=C1c1cn2c3c(cc(F)cc13)CN(C(=O)N1CCCCC1)CC2
In short: (§1)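 Dounce homogenisation of K562 pellets in PBS pH 7.4 with 1 mM MgCl2 produced a crude extract, used at 1 mg/mL protein. Exposure to 10 μM compound lasted 30 min, and aliquots were then heated for 3 min across 48°C-58°C, pooled and brought to 0.5% NP-40 at 4°C. The supernatant after 21,000xg for 90 min was quantified by TMTpro 16plex LC-MS/MS with channel sums equalised. Duplicate values are given as log-two fold change in thermal stability relative to solvent controls.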

entospletinib = compound: c1cn2cc(-c3ccc4cn[nH]c4c3)nc(Nc3ccc(N4CCOCC4)cc3)c2n1 [entospletinib]
In short: as §1

vorinostat = compound: O=C(CCCCCCC(=O)Nc1ccccc1)NO [vorinostat]
In short: as §1

silmitasertib = compound: O=C(O)c1ccc2c(c1)nc(Nc1cccc(Cl)c1)c1ccncc12 [silmitasertib]
In short: as §1

[2] = compound: NCC(=O)Nc1ccc(-n2nc(C(F)(F)F)cc2-c2ccc3c(ccc4ccccc43)c2)cc1
In short: as §1

Target | log2 fold change [1] | log2 fold change (entospletinib) | log2 fold change (vorinostat) | log2 fold change (silmitasertib) | log2 fold change [2]
WDR76 (UniProt Q9H967) | inactive: 0.054 | inactive: -0.033 | – | – | –
VLDLR (UniProt P98155) | inactive: -0.115 | – | inactive: 0.325 | inactive: 0.133 | –
WDR43 (UniProt Q15061) | inactive: 0.004 | inactive: 0.023 | inactive: -0.096 | inactive: 0.013 | inactive: -0.002
XBP1 isoform 2 (UniProt P17861) | – | – | inactive: -0.104 | inactive: 0.011 | –
WDR36 (UniProt Q8NI36) | inactive: 0.028 | inactive: -0.011 | active: -0.345 | inactive: 0.044 | inactive: -0.051
WWOX (UniProt Q9NZC7) | inactive: 0.089 | – | – | – | inactive: 0.18
WDR19 (UniProt Q8NEZ3) | inactive: 0.321 | – | – | – | –
WDFY2 (UniProt Q96P53) | – | – | inactive: -0.167 | inactive: 0.001 | –
WDR48 (UniProt Q8TAF3) | inactive: -0.023 | inactive: 0.01 | inactive: 0.053 | inactive: -0.009 | inactive: 0.003
WDR20 isoform 7 (UniProt Q8TBZ3) | inactive: -0.013 | inactive: 0.018 | inactive: 0.009 | inactive: 0.087 | inactive: 0.01
VTI1B (UniProt Q9UEU0) | inactive: -0.037 | inactive: -0.009 | inactive: 0.066 | inactive: -0.01 | –
WAS (UniProt P42768) | – | inactive: -0.055 | inactive: -0.07 | inactive: 0.025 | –
WIPI1 (UniProt Q5MNZ9) | inactive: 0.026 | inactive: -0.001 | inactive: 0.088 | inactive: -0.051 | –
VPS33A (UniProt Q96AX1) | inactive: 0.007 | inactive: -0.018 | active: -0.222 | inactive: 0.025 | inactive: 0.011
VRK2 (UniProt Q86Y07) | inactive: 0.039 | inactive: -0.064 | inactive: -0.166 | inactive: -0.022 | inactive: -0.158
VWA3B isoform 6 (UniProt Q502W6) | inactive: -0.091 | inactive: 0.006 | inactive: -0.096 | inactive: 0.074 | –
VPS72 (UniProt Q15906) | inactive: -0.029 | inactive: -0.014 | active: -0.401 | inactive: -0.018 | inactive: 0.11

Target | log2 fold change [1] | log2 fold change (entospletinib) | log2 fold change (vorinostat) | log2 fold change (silmitasertib) | log2 fold change [2]
WASHC2C (UniProt Q9Y4E1) | inactive: -0.014 | inactive: -0.053 | inactive: 0.139 | inactive: 0.009 | inactive: 0.011
VPS35L (UniProt Q7Z3J2) | inactive: -0.006 | inactive: 0.015 | active: -0.266 | inactive: 0.027 | inactive: 0.019
WWC2 isoform 6 (UniProt Q6AWC2) | inactive: -0.018 | inactive: -0.052 | inactive: -0.077 | inactive: -0.001 | inactive: -0.027
XAGE1A (UniProt Q9HD64) | – | inactive: 0.045 | – | – | inactive: -0.065
WARS (UniProt P23381) | inactive: 0.058 | inactive: 0.014 | inactive: 0.141 | inactive: -0.023 | inactive: 0.004
VMP1 (UniProt Q96GC9) | inactive: -0.018 | inactive: 0.007 | inactive: 0.022 | inactive: -0.023 | inactive: -0.017
VPS8 (UniProt Q8N3P4) | inactive: -0.02 | inactive: -0.005 | inactive: -0.223 | inactive: 0.033 | inactive: 0.03
WARS1 (UniProt G3V5U1) | – | inactive: -0.368 | – | – | –
WDR54 isoform 4 (UniProt Q9H977) | inactive: 0.025 | inactive: 0 | – | – | inactive: -0.116
VRK1 (UniProt Q99986) | inactive: 0.002 | inactive: 0.056 | inactive: -0.08 | inactive: 0.091 | inactive: -0.013
VPS35, A0A1W2PP10 | inactive: -0.029 | – | inactive: -0.038 | inactive: -0.146 | –
VWA8 (UniProt A3KMH1) | inactive: -0.058 | inactive: 0.039 | inactive: -0.529 | inactive: 0.026 | inactive: -0.117
WARS1 (UniProt G3V277) | – | inactive: -0.067 | – | – | inactive: -0.047
WIPF1 isoform 3 (UniProt O43516) | inactive: 0.01 | inactive: -0.023 | inactive: 0.021 | inactive: -0.038 | inactive: 0.011
VPS45 (UniProt Q9NRW7) | inactive: -0.022 | inactive: -0.001 | inactive: -0.059 | inactive: -0.002 | inactive: -0.047
WAC isoform 5 (UniProt Q9BTA9) | – | – | inactive: -0.002 | inactive: 0.351 | –
